Assay results taken from paper PMC12815910.
These are yes or no findings as the source states them, for the method shown. Binding seen in cells or lysates may run through a third protein. Some results given as binding are weak or reduced against the parent protein; the word gives no strength. Sequences can lack the tags named with a protein.

Chains of the proteins cited; added tags and fusions are not shown.
UniProt Q8R429: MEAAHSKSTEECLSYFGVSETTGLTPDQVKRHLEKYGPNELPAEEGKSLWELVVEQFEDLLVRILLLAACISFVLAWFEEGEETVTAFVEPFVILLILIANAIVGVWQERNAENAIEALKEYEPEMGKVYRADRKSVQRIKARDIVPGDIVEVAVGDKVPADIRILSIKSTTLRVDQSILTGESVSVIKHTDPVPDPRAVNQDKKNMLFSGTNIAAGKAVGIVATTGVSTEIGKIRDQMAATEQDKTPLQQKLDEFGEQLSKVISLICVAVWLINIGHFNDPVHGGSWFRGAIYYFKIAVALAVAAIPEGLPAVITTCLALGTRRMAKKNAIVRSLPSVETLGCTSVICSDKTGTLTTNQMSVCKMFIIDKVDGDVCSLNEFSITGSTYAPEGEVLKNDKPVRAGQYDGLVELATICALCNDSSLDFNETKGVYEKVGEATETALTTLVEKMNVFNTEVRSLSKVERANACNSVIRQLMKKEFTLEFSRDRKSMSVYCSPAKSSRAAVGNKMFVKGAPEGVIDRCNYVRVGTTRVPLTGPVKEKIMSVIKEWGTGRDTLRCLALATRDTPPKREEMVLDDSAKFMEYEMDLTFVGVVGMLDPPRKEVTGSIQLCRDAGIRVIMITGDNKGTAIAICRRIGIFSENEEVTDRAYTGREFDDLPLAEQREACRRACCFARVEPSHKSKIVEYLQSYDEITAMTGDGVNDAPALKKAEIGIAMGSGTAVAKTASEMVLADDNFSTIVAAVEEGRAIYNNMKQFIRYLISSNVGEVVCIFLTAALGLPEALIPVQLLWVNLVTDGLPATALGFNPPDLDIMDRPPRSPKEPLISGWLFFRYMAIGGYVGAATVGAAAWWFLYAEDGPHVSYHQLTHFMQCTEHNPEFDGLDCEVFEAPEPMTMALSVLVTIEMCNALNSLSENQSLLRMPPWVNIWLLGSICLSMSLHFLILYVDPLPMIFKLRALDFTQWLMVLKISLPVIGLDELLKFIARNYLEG

Molecular target: Flag-SERCA1a (mouse) (UniProt Q8R429)
Test: co-IP; HEK293 cells co-transfected; lysates (500 ug protein) in Co-IP buffer (20 mM NaPO4, 150 mM NaCl, 2 mM MgCl2, 0.1% NP-40, 10% glycerol, pH 7.4, 1 mM DTT) incubated with anti-DDDDK-tag mAb-magnetic agarose 60 min at 4 °C; eluted with 3× FLAG peptide; Western blot

Binder: MSGKSWVLISTTSPQSLEDEILGRLLKILFVLFVDLMSIMYVVITS (peptide, UniProt Q9CV60 1-46) [EGFP-MRLN (myoregulin)]
- binding: binds

B1: MCARE (no tag named) (protein, UniProt D3Z1U7 1-110)
chain: MSQYASRSDSKGALDSSSPEAYTEDDKTEEDIPAPSNYLWLTIISCFCPAYPVNIVALVFSIMSLNSYNDGDYEGARRLGRNAKWVAIASIIIGLVIIGVSCAVHFSRNP
- binding: binds
